Results on one molecule are retold here after US20180289605A1, “NON-AQUEOUS COMPOSITION FOR HAIR FRIZZ REDUCTION” (The Procter & Gamble Company, priority 2017, published 2018).

This test is described as follows: Dynamic Vapor Sorption (DVS) % water reduction of treated hair. The settings on record: Class II materials; hair 0% RH versus 90% RH, versus control hair. The method, then: The % water reduction is calculated as follows:
% Water reduction=[(B−A)×100]/B

Take `CC(C)CC(=O)O` [Isovaleric acid]: the “% Water reduction” value worked out at 15%.
